Reference: PubChem BioAssay AID504847 (National Center for Advancing Translational Sciences (NCATS), 2011)
Out of some 400,000 compounds screened, about 3,700 (0.93%) were called active. The shares of active, inactive and inconclusive entries below differ from those in the screen. Calls follow the shape of the dose curve; as a rule, active = well fitted inhibition curve with a large enough effect; inconclusive = small, poorly fitted or top-dose-only effect, or another doubt; inactive = no such curve, though single readings can be large or run the other way. Where the call is inconclusive, the potency comes from a doubtful curve fit.

The chains behind the UniProt entries cited, without tags or fusion partners. Where a name states a change or a piece, a line headed by the entry shows the natural chain unless it says otherwise.
UniProt P11473: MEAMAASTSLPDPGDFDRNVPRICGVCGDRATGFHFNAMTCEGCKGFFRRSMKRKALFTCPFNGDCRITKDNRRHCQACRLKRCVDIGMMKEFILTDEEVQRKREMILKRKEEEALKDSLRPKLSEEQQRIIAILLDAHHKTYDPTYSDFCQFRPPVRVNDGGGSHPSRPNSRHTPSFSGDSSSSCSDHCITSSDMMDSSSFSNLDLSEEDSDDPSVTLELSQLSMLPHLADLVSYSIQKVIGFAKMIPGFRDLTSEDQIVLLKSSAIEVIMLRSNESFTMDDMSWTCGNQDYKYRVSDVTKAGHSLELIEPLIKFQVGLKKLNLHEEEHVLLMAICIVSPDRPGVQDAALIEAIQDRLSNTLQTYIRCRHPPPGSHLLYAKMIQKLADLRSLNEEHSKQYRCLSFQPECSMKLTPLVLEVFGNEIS

target: Vitamin D3 receptor (Homo sapiens) (UniProt P11473); assay: Inhibitors of the vitamin D receptor (VDR): qHTS; details: VDR-SRC2-3 peptide fluorescence polarization, 2 h; max response, negative = inhibition: stronger effect = lower value
Procedure, shortened: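 After 23 nl compound addition and a short centrifugation, plates sat for 2 hours at ambient temperature; polarization of fluorescence then indicated loss of VDR binding to peptide SRC2-3.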
% is scaled to controls: 0 for no effect and ±100 for the full control effect; potency is read from the fitted curve at half-maximal effect.

Potency, inconclusive:
COC(=O)CCCC(=O)N1CCCC(CNS(=O)(=O)c2ccc(OC)cc2)C1 (stereo not given) 79.4 µM [inhibitor, single point], CN1Cc2cc(C(=O)c3ccccc3O)cnc2NC1=O 100 µM [inhibitor, single point], CCOC(=O)c1c(NC(=O)/C=C/C(=O)O)sc(C)c1-c1ccc(C)c(C)c1 31.6 µM [inhibitor, single point], CC(C)(C)c1ccc(C(=O)C2CCCN(C(=O)c3ccccn3)C2)cc1 (stereo not given) 89.1 µM [inhibitor, single point], Fc1ccccc1NC(=S)NNc1ncc(C(F)(F)F)cc1Cl 89.1 µM [inhibitor, single point], CC(=O)Nc1cccc(Oc2nc(C)cc(C)c2C#N)c1 89.1 µM [inhibitor, partial curve, poor fit], Cc1c(Nc2cc(Cl)c3nonc3c2[N+](=O)[O-])c(=O)n(-c2ccccc2)n1C 25.1 µM [inhibitor, single point], Cc1ccccc1N/N=C/c1ccc(N2CCOCC2)cc1 89.1 µM [inhibitor, partial curve, poor fit], CCC(=O)C(C(=O)OC)[C@H](CCc1ccccc1)NC(=O)OC (stereo not given in full) 50.1 µM [inhibitor, partial curve], CS(=O)(=O)Nc1cccc(-c2cncnc2NCc2ccccc2)c1 35.5 µM [inhibitor, partial curve], N#Cc1ccc(C(=O)Nc2nnc(-c3cccs3)o2)cc1 89.1 µM [inhibitor, single point], CC(=O)N1[C@H](Cc2ccccc2)C=C[C@]1(C)C(=O)NCCc1c[nH]c2ccccc12 0.631 µM [inhibitor, full curve, poor fit], COCCCNS(=O)(=O)c1ccc2c(c1)CCN2C(C)=O 50.1 µM [inhibitor, partial curve, poor fit], COc1cccc(-c2nnc(-c3ccco3)o2)c1 63.1 µM [inhibitor, partial curve, poor fit], COc1cc(/C=C2\C(=N)N3N=CSC3=NC2=O)cc(Br)c1OC(=O)c1ccco1 17.8 µM [inhibitor, single point], O=C(NCc1ccc(Cl)cc1)c1n[nH]c([N+](=O)[O-])c1Cl 28.2 µM [inhibitor, single point], O=C(O)C1C2C=CC3(CN(Cc4ccco4)C(=O)C13)O2 (stereo not given) 3.98 µM [inhibitor, full curve, poor fit], CCOC(=O)c1c(C)c(C(=O)Nc2ccc(N(C)C)cc2)c(C)n1CC 100 µM [inhibitor, single point], COc1cc(/C=C2\SC(=Nc3ccc(Cl)c(C(=O)O)c3)NC2=O)c(Br)c(Br)c1O 63.1 µM [inhibitor, partial curve, poor fit], CCOC(=O)/C=C/C(=O)OCC(=O)Nc1ccc([N+](=O)[O-])cc1 50.1 µM [inhibitor, partial curve, poor fit], Nc1nc2c(c(=O)[nH]1)C(c1cccc3ccccc13)C1=C(N2)c2ccccc2C1=O (stereo not given) 79.4 µM [inhibitor, partial curve, poor fit], CCOc1cc2c3c(c1)C(C)=CC(C)(C)N3C(=O)C2=O 44.7 µM [inhibitor, partial curve], CC1CCC(NC(=O)CCS(=O)(=O)c2ccc3c(c2)NC(=O)CO3)CC1 (stereo not given) 12.6 µM [inhibitor, partial curve, poor fit], Cc1c(NC2=C(Cl)C(=O)N(c3ccccc3)C2=O)c(=O)n(-c2ccccc2)n1C 79.4 µM [inhibitor, partial curve, poor fit], CC(=O)c1c(Cl)nc2ccc(Br)cc2c1-c1ccccc1 63.1 µM [inhibitor, partial curve, poor fit], COc1ccc(-c2cc3c(=O)n(CC(=O)Nc4ccc(C(C)=O)cc4)ncn3n2)cc1 89.1 µM [inhibitor, partial curve, poor fit], O=S(=O)(Nc1ccccc1Cl)c1ccc(F)cc1 89.1 µM [inhibitor, partial curve, poor fit], CCC1=C(OC(=O)N(CC)CC)N2C(=O)OC(=NCC3CC3)[C@]2(Cc2ccccc2)[C@H]2C1=CC[C@H]1C(=O)N(C)C(=O)[C@H]12 39.8 µM [inhibitor, partial curve, poor fit], O=C(Nc1ccc2nc(-c3ccco3)c(-c3ccco3)nc2c1)N1CCCCCC1 50.1 µM [inhibitor, partial curve, poor fit]

Potency, active:
COc1ccc2[nH]c(S(=O)Cc3ncc(C)c(OC)c3C)nc2n1 (stereo not given) 44.7 µM

Max response, negative = inhibition, inactive:
COc1cc(CNc2ccc3[nH]c(=O)[nH]c3c2)ccc1OCc1ccc(F)cc1 5.35%, Cc1ccc(S(=O)(=O)c2nc(-c3ccco3)oc2SCc2ccccc2Cl)cc1 6.68%, CCOC(=O)CNC(=O)/C=C/c1ccc2c(c1)OCO2 4.23%, CN(C)CCNc1oc(-c2ccccc2Cl)nc1S(=O)(=O)c1ccccc1 12.6%, COc1ccc(S(=O)(=O)CCC(=O)N2c3ccccc3CC2C)cc1 (stereo not given) 10.1%, CCC1CCCCN1C(=O)Cn1c(=O)n(CCCCCC(=O)NCc2ccc(F)cc2)c(=O)c2sccc21 (stereo not given) 19.6%, CCOc1ccccc1OCC(=O)NCc1ccco1 -1.54%, CC1=C(c2ccc(Cl)cc2)S(=O)(=O)N=C1N1CCN(c2cccc(C(F)(F)F)c2)CC1 15.1%, CCOc1ccc(N2C(=O)CC(/C=C3/N(C)c4ccccc4C3(C)C)C2=O)cc1 (stereo not given) -13.3%, CCS(=O)(=O)c1ccccc1C(=O)NC1CCCc2ccccc21 (stereo not given) -6.03%
